Reference: patent US9011863B2, “Combinations of kinase inhibitors for the treatment of cancer” (Exelixis, Inc., priority 2010, dated 2015)
Entries after “also recorded” stand apart in the source; their conditions may differ. At least one structure is not confirmed: it was looked up by name or label, or the drawing left a doubt.

Tested on: HER3 mRNA
Assay: real-time qPCR of HER3 mRNA
Assay type: cell-based, human
Conditions: BT474; 2 μM 5J8, 20 μM LY294002, 50 nM rapamycin; 10 hours
Experimental: FIG. 12B depicts a bar chart of timed HER3 mRNA transcription in BT474 cells which were treated with 2 μM 5J8, 20 μM LY294002, and 50 nM rapamycin for 10 hours prior to RNA isolation and qPCR analysis with HER3-specific primers.

For CO[C@H]1C[C@@H]2CC[C@@H](C)[C@@](O)(O2)C(=O)C(=O)N2CCCC[C@H]2C(=O)O[C@H]([C@H](C)C[C@@H]2CC[C@@H](O)[C@H](OC)C2)CC(=O)[C@H](C)/C=C(\C)[C@@H](O)[C@@H](OC)C(=O)[C@H](C)C[C@H](C)/C=C/C=C/C=C/1C [rapamycin], the “HER3 mRNA levels” value was “but not; also recorded: did not mirror the effect of compound A or the AKT inhibitor 5J8 on HER3 mRNA”.

With O=c1cc(N2CCOCC2)oc2c(-c3ccccc3)cccc12 [LY294002] the “HER3 mRNA levels” value was “upregulated HER3 mRNA levels”.
